From PMC9073698 come the findings set out here.

This assay concerns the target T1, PARG-1::GFP (C. elegans) (UniProt Q867X0).
T1 sequence: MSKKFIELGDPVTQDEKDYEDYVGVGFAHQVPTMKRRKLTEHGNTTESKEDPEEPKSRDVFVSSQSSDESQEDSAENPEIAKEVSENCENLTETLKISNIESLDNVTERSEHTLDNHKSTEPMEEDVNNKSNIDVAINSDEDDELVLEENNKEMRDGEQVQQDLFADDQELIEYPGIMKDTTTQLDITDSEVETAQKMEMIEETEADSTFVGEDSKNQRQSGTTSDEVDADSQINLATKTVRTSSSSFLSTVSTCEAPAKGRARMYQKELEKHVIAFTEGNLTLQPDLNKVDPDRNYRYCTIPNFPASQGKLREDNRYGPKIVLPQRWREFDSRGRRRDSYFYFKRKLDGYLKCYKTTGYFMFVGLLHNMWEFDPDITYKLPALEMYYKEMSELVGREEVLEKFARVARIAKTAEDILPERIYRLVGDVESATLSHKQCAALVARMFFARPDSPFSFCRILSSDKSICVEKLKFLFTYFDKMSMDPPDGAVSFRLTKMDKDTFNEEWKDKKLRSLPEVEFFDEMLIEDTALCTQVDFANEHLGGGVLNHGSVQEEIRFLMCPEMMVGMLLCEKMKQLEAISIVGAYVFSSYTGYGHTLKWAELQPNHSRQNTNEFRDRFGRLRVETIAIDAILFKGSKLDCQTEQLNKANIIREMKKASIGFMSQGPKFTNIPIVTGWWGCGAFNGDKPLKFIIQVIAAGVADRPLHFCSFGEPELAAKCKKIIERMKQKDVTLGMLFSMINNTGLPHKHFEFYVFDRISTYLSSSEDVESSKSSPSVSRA
In words: affinity purification with mass spectrometry; GFP immunoprecipitation with agarose GFP-traps (Chromotek) from 1 mg of pooled nuclear-soluble and chromatin-bound fractions of parg-1::GFP animals, with untagged WT animals as control; Buffer D (20% glycerol, 0.2 mM EDTA pH 8, 150 mM KCl, 20 mM Hepes-KOH pH 7.9, 0.2% Triton X-100); overnight at 4°C.

No constants are given. Whether binding was seen depends on the method and setting. Binding seen in cells or lysates may run through a third protein. Here binding means that the protein was enriched with, or labelled near, the bait; the list need not be complete. Sequences can lack the tags named with a protein.

B1: HTP-3 phosphorylated at Serine 285 (protein, UniProt O01820 1-739)
chain: MDESFDSSVVPGSLTSDDRAIFNEQTLKNGDENSKSSLEVMANCVYLANSTILRERKVIPAEYFQDFQVYGDVSGYTLRQDIPEGRSVSSKLLASHDAIRQKLLQKLAIVVEESLNTNPVETFVWTFVYDSTTSASAEIGYGGRKSKFVVNYLNMDDTAQQFCKMFSELRNVLSLLRPLPRGLIPSMKVAYRGEPEFVPGFQQVDDFVNPEQINLGAVSFPHGNGFQFAYASKFMVEQPSAIRPPVEVSHFEDDLLNSTITPIEVVRDNTMNCAENPELDEIYFSPGRQEVRMDEDVANESIRCNPSMASEMMVLQSEYNVLIADNDEVPMVVERERSPIVKAAKKRSTRAPAVPITPTEPASPVESPVKEQPQKAPKAQMRRSSKRTTKNNERCEQKEEEPIVNPKRRSARRLVPPVEVDEQPEEQNDDDAQNSLQIDSDAQNSLQIDSDAIITSPEKRNESKSAIPEEAADLDNTTSEKQESSTARYGVSNTSINRKKPDPVANPVSEEAQVDLANGSIPDKRPRKRKYGRVSSILDVADLPTDDTVEEDVRESPIYGRVPSILDVARAEENDAQNDAQDAQNEIAVEGLADLSIDTEQHEEAAPINVTGHQSESVPIIVTEHQSEEAQTVVTEQPAGAASVIAAERHYGRVSSILDVAGSFADVDPSGAAPAIATERHYGRVSSILDVAGSLSDVDPQEDTESSTQNQSTSKKFKPNPPKAMRYGQSPNMPSRRGN
modifications: phosphoserine at 285
Turning to B1, the binding result was “binds”.
